{"source": "the supplement of paper PMC7238544", "note": "Where a name gives a salt, the structure may show the parent alone. ± gives the standard deviation of the averaged measurements. This is one part of the list. The data scatter; read single values as rough."}
{"system": "hAMSC donor 1", "experiment": "Hoechst total cell count ratio vs vehicle control; hAMSC are human adipose-derived mesenchymal stem cells given an EGFP-luciferase plasmid by lipofection; higher = more cells (less toxicity)", "settings": "priming compound concentration 13 µM"}
{"smiles": "COC(=O)N1CCN(C(=O)Cc2ccc(Cl)c(Cl)c2)C(CN2CCCC2)C1", "note": "(configuration not stated)", "Hoechst total cell count ratio": "1.35 ± 0.26"}
{"smiles": "c1ccc(Cn2ccnc2)cc1", "note": "[Benzylimidazole]", "Hoechst total cell count ratio": "1.29 ± 0.078"}
{"smiles": "O=C1CN=C(c2ccccc2)c2cc([N+](=O)[O-])ccc2N1", "note": "[Nitrazepam]", "Hoechst total cell count ratio": "1.34 ± 0.23"}
{"smiles": "C[C@]12CC[C@H](O)CC1=CC[C@@H]1[C@@H]2CC[C@]2(C)C(=O)CC[C@@H]12", "note": "[Dehydroepiandrosterone]", "Hoechst total cell count ratio": "1.12 ± 0.15"}
{"smiles": "O=C1CC[C@@]2(O)[C@H]3Cc4ccc(O)c5c4[C@@]2(CCN3CC2CC2)[C@H]1O5", "note": "[Naltrexone hydrochloride]", "Hoechst total cell count ratio": "1.24 ± 0.15"}
{"smiles": "N=C(NCc1ccc(Cl)cc1)SCCCc1c[nH]cn1", "note": "[Clobenpropit]", "Hoechst total cell count ratio": "1.16 ± 0.21"}
{"smiles": "C=C(C)[C@@H]1[C@H]2OC(=O)[C@@H]1[C@]1(O)C[C@H]3O[C@]34C(=O)O[C@H]2[C@]14C.CC(C)(O)[C@@H]1[C@H]2OC(=O)[C@@H]1[C@]1(O)C[C@H]3O[C@]34C(=O)O[C@H]2[C@]14C", "note": "[Picrotin - Picrotoxinin]", "Hoechst total cell count ratio": "1.08 ± 0.13"}
{"smiles": "C[C@]12Cc3c[nH]nc3C[C@@H]1CC[C@@H]1[C@@H]2CC[C@@]2(C)[C@H]1CC[C@]2(C)O", "note": "[Stanozolol]", "Hoechst total cell count ratio": "1.24 ± 0.19"}
{"smiles": "C[N+]1(C)CCCC(OC(=O)C(O)(c2ccccc2)c2ccccc2)C1", "note": "(configuration not stated) [Mepenzolate bromide]", "Hoechst total cell count ratio": "1.52 ± 0.096"}
{"smiles": "CN[C@@H]1C[C@@H](c2ccc(Cl)c(Cl)c2)c2ccccc21", "note": "[Indatraline hydrochloride]", "Hoechst total cell count ratio": "0.86 ± 0.0035"}
{"smiles": "C#CCN(C)[C@H](C)Cc1ccccc1", "note": "[Selegiline hydrochloride]", "Hoechst total cell count ratio": "1.08 ± 0.12"}
{"smiles": "C[C@]12CC[C@H]3[C@@H](CCC4=CC(=O)CC[C@@]43C)[C@@H]1CC[C@@H]2O", "note": "[Testosterone]", "Hoechst total cell count ratio": "1.27 ± 0.21"}
{"smiles": "C[C@]12C/C(=C/O)C(=O)C[C@@H]1CC[C@@H]1[C@@H]2CC[C@@]2(C)[C@H]1CC[C@]2(C)O", "note": "[Oxymetholone]", "Hoechst total cell count ratio": "1.17 ± 0.19"}
{"smiles": "FC(F)(F)c1cccc(N2CCNCC2)c1", "note": "[TFMPP hydrochloride]", "Hoechst total cell count ratio": "1.01 ± 0.11"}
{"smiles": "CN(C)C(=O)Oc1ccc[n+](C)c1", "note": "[Pyridostigmine bromide]", "Hoechst total cell count ratio": "1.28 ± 0.16"}
{"smiles": "Oc1cc(Cl)ccc1Oc1ccc(Cl)cc1Cl", "note": "[Triclosan]", "Hoechst total cell count ratio": "1.03 ± 0.18"}
{"smiles": "CCOC(=O)c1cncn1[C@H](C)c1ccccc1", "note": "[Etomidate]", "Hoechst total cell count ratio": "1.13 ± 0.17"}
{"smiles": "CCOC(=O)C1(c2ccccc2)CCN(CCC(C#N)(c2ccccc2)c2ccccc2)CC1", "note": "[Diphenoxylate hydrochloride]", "Hoechst total cell count ratio": "1.11 ± 0.16"}
{"smiles": "CCCCC/C=C\\C/C=C\\C/C=C\\C/C=C\\CCCC(=O)Nc1ccc(O)cc1", "Hoechst total cell count ratio": "0.965 ± 0.056"}
{"smiles": "CCCCCCCCCOc1ccc2[nH]cc(CCN)c2c1", "note": "[5-Nonyloxytryptamine hydrochloride]", "Hoechst total cell count ratio": "0.442 ± 0.21"}
{"smiles": "COc1ccc(CCN)cc1OC", "note": "[Homoveratrylamine]", "Hoechst total cell count ratio": "0.84 ± 0.11"}
{"smiles": "O=C(O)C(Cl)Cl", "note": "[Dichloroacetic acid]", "Hoechst total cell count ratio": "1.09 ± 0.17"}
{"smiles": "C[C@]12CC[C@H](O)CC1=CC[C@@H]1[C@@H]2CC[C@@]2(C)[C@H]1CC[C@]2(C)O", "note": "[Methylandrostenediol]", "Hoechst total cell count ratio": "1.21 ± 0.14"}
{"smiles": "C=C(C)CN1CC[C@@]23c4c5ccc(O)c4O[C@H]2c2[nH]c4ccccc4c2C[C@]3(O)C1C5", "note": "[SDM25N hydrochloride]", "Hoechst total cell count ratio": "1.02 ± 0.074"}
{"smiles": "c1ccc2c(c1)Nc1ccccc1S2", "note": "[Phenothiazine]", "Hoechst total cell count ratio": "1.15 ± 0.056"}
{"smiles": "CN1CC[C@@H](c2ccc(F)cc2)[C@H](COc2ccc3c(c2)OCO3)C1", "note": "[N-Methylparoxetine]", "Hoechst total cell count ratio": "1.4 ± 0.11"}
{"smiles": "CN1C(=O)CN=C(c2ccccc2)c2cc(Cl)ccc21", "note": "[Diazepam]", "Hoechst total cell count ratio": "1.07 ± 0.15"}
